Results reported in PubChem BioAssay AID192 (DTP/NCI, 2004).
The list is a part of this screen's results and no random one: it gathers tests that were run many times, whatever their T/C, doses with no T/C, and many T/C values between a quarter and a half above the control. Other doses and runs of a compound stand elsewhere. T/C gives the treated animals as a percentage of the vehicle group. Some doses have a count of surviving animals in place of a T/C: the source files T/C as zero there, which appears to mark a toxic dose or a test without result, not a measured value. Some survivor counts are full or nearly so, which does not show that the dose was tolerated: the source hardly ever lists a survival T/C far under the control, and the zero likely stands for such cases as well. Counts of survivors are from the toxicity check (mostly the fifth day) where no day follows; animals may have died later. Schedules are NCI's codes, taken here to give the interval after Q, in days (D) or hours (H), and the number of doses after X. Counts like (3×) say how often a value occurs here. Some entries were tested several times; their values stand side by side, smallest first. For survival time, the PubChem record calls one and a half times the control and up active, and a quarter to a half above the control has no call in these data; cut-offs in other NCI protocols can differ.

Test system: BDF1 mice, B16 melanoma ip, median survival T/C
Test: NCI In Vivo Anticancer Drug Screen. Data for tumor model B16 Melanoma (intraperitoneal) in B6D2F1 (BDF1) mice
Settings: T/C endpoint: median survival time, higher T/C = longer survival
How it was run: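 Each result divides a survival or tumor-size measurement in the compound-treated group by the same measurement in the vehicle group.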

[1] = dose: 50.0 mg/kg/injection, schedule: Q01DX009 (ip), vehicle: saline
[2] = dose: 100.0 mg/kg/injection, schedule: Q01DX009 (ip), vehicle: saline
[3] = dose: 200.0 mg/kg/injection, schedule: Q01DX009 (ip), vehicle: saline
[4] = dose: 200.0 mg/kg/injection, schedule: Q01DX009 (ip), vehicle: gum acacia
[5] = dose: 400.0 mg/kg/injection, schedule: Q01DX009 (ip), vehicle: gum acacia
[6] = dose: 400.0 mg/kg/injection, schedule: Q01DX009 (ip), vehicle: saline with Tween-80
[7] = dose: 100.0 mg/kg/injection, schedule: Q01DX009 (ip), vehicle: saline with Tween-80
[8] = dose: 200.0 mg/kg/injection, schedule: Q01DX009 (ip), vehicle: saline with Tween-80
[9] = dose: 400.0 mg/kg/injection, schedule: Q01DX009 (ip), vehicle: Klucel (hydroxypropylcellulose) (HPC)
[10] = dose: 50.0 mg/kg/injection, schedule: Q01DX009 (ip), vehicle: saline with Tween-80
[11] = dose: 200.0 mg/kg/injection, schedule: Q01DX009 (ip), vehicle: Klucel (hydroxypropylcellulose) (HPC)

## CC(CN1CCN(CCOCCO)CC1)CN1c2ccccc2Sc2ccccc21 (stereo unspecified)
dose: 12.5 mg/kg/injection, schedule: Q01DX009 (ip), vehicle: saline
  survivor count: 10 of 10
[1]
  survivor count: 7 of 10
[2]
  survivor count: 0 of 10
[3]
  survivor count: 0 of 10
dose: 400.0 mg/kg/injection, schedule: Q01DX009 (ip), vehicle: saline
  survivor count: 0 of 10

## CCCCCCCCCCCCCCCCCCNC(=O)Nc1c(C)cc(C)cc1C
[4]
  survivor count: 10 of 10
[5]
  survivor count: 10 of 10

## Cc1cc(Cl)ccc1NC(=O)Nc1ccccc1
dose: 100.0 mg/kg/injection, schedule: Q01DX009 (ip), vehicle: gum acacia
  survivor count: 10 of 10
[4]
  survivor count: 10 of 10
[5]
  survivor count: 9 of 10

## Oc1ccc(O)c(/C=N/NC(=S)NC2CC3CC2C2C=CCC32)c1 (stereo unspecified)
dose: 12.5 mg/kg/injection, schedule: Q01DX009 (ip), vehicle: olive oil, sesame oil, peanut oil
  survivor count: 10 of 10 (2×)
dose: 25.0 mg/kg/injection, schedule: Q01DX009 (ip), vehicle: olive oil, sesame oil, peanut oil
  survivor count: 10 of 10 (2×)
dose: 50.0 mg/kg/injection, schedule: Q01DX009 (ip), vehicle: olive oil, sesame oil, peanut oil
  survivor count: 10 of 10 (2×)
dose: 100.0 mg/kg/injection, schedule: Q01DX009 (ip), vehicle: olive oil, sesame oil, peanut oil
  survivor count: 10 of 10 (2×)
dose: 200.0 mg/kg/injection, schedule: Q01DX009 (ip), vehicle: olive oil, sesame oil, peanut oil
  survivor count: 10 of 10 (2×)
dose: 400.0 mg/kg/injection, schedule: Q01DX009 (ip), vehicle: olive oil, sesame oil, peanut oil
  survivor count: 4 of 10 and 5 of 10

## O=C1C=CC(=O)C2=C1CCCC2
dose: 2.0 mg/kg/injection, schedule: Q01DX009 (ip), vehicle: saline with Tween-80
  survivor count: 8 of 9
dose: 6.5 mg/kg/injection, schedule: Q01DX009 (ip), vehicle: saline with Tween-80
  survivor count: 9 of 10

## O=S1(=O)CC2(N3CCOCC3)CCCCC21 (stereo unspecified)
[6]
  survivor count: 5 of 6

## CC1(c2ccccc2)CCc2ccccc21 (stereo unspecified)
[7]
  survivor count: 10 of 10
[8]
  survivor count: 10 of 10
[6]
  survivor count: 9 of 10

## C[C@]12CC[C@H]3[C@@H](CCC4=CC(=O)CC[C@@]43C)[C@@H]1CC[C@@H]2OC(=O)Cc1ccc(N(CCCl)CCCl)cc1
dose: 256.0 mg/kg/injection, schedule: Q02DX009 (ip), vehicle: Klucel (hydroxypropylcellulose) (HPC)
  survivor count: 10 of 10
dose: 512.0 mg/kg/injection, schedule: Q02DX009 (ip), vehicle: Klucel (hydroxypropylcellulose) (HPC)
  survivor count: 10 of 10

## CCOC(=O)C(CC)c1ccccc1 (stereo unspecified)
[8]
  survivor count: 8 of 10

## CCCCCCCCCCCCNC(=O)Nc1cc(C)ccc1C
[9]
  survivor count: 10 of 10

## CC1=C2CC(C)(C)/C=C\C(=O)/C(C)=C\C3=C[C@H](C)C[C@]3(O2)C1=O
dose: 4.0 mg/kg/injection, schedule: Q01DX009 (ip), vehicle: saline with Tween-80
  survivor count: 6 of 6
dose: 8.0 mg/kg/injection, schedule: Q01DX009 (ip), vehicle: saline with Tween-80
  survivor count: 5 of 6
dose: 24.0 mg/kg/injection, schedule: Q01DX009 (ip), vehicle: saline
  survivor count: 10 of 10
dose: 48.0 mg/kg/injection, schedule: Q01DX009 (ip), vehicle: saline
  survivor count: 9 of 10

## COc1cc2ccc3c4cc5c(cc4c[n+](C)c3c2cc1OC)OCO5
dose: 20.0 mg/kg/injection, schedule: Q01DX009 (ip), vehicle: Klucel (hydroxypropylcellulose) (HPC)
  T/C: 127 % of control
dose: 40.0 mg/kg/injection, schedule: Q01DX009 (ip), vehicle: Klucel (hydroxypropylcellulose) (HPC)
  survivor count: 9 of 10
dose: 80.0 mg/kg/injection, schedule: Q01DX009 (ip), vehicle: Klucel (hydroxypropylcellulose) (HPC)
  survivor count: 10 of 10
dose: 160.0 mg/kg/injection, schedule: Q01DX009 (ip), vehicle: Klucel (hydroxypropylcellulose) (HPC)
  survivor count: 9 of 10

## Cc1cc(O)c2c(c1O)C(=O)C13C(=C2O)C(=O)C2C(O)C1C1C(O)C3C(=O)C3=C(O)c4c(O)cc(C)c(O)c4C(=O)C321 (stereo unspecified)
dose: 1.56 mg/kg/injection, schedule: Q01DX009 (ip), vehicle: saline with Tween-80
  T/C: 142 % of control
dose: 3.12 mg/kg/injection, schedule: Q01DX009 (ip), vehicle: saline with Tween-80
  survivor count: 9 of 10
dose: 6.25 mg/kg/injection, schedule: Q01DX009 (ip), vehicle: saline with Tween-80
  survivor count: 6 of 10
dose: 12.5 mg/kg/injection, schedule: Q01DX009 (ip), vehicle: saline with Tween-80
  survivor count: 0 of 10
dose: 25.0 mg/kg/injection, schedule: Q01DX009 (ip), vehicle: saline with Tween-80
  survivor count: 0 of 10
[10]
  survivor count: 0 of 10

## O=C(O)/C(Cl)=C(/Cl)C(Cl)=C(Cl)Cl
[10]
  survivor count: 10 of 10
[7]
  survivor count: 10 of 10

## O=C1C=CC(=C(c2ccccc2)c2ccccc2)C=C1
dose: 50.0 mg/kg/injection, schedule: Q04DX003 (ip), vehicle: Klucel (hydroxypropylcellulose) (HPC)
  survivor count: 6 of 10

## CN(C)c1c(-c2ccccc2)cc(-c2ccccc2)[nH]c1=O
[8]
  survivor count: 9 of 10
[6]
  survivor count: 10 of 10

## O=C(O)C1CCCCC1C(=O)Nc1ccc(F)cc1 (stereo unspecified)
[8]
  survivor count: 8 of 10
[6]
  survivor count: 10 of 10

## Cc1cc(Cl)ccc1NS(=O)(=O)c1ccccc1
[9]
  survivor count: 10 of 10

## O=C(Nc1ccccc1)N(Cc1ccccc1)c1ccccc1
dose: 100.0 mg/kg/injection, schedule: Q04DX003 (ip), vehicle: carboxymethylcellulose (CMC)
  survivor count: 10 of 10
dose: 400.0 mg/kg/injection, schedule: Q04DX003 (ip), vehicle: carboxymethylcellulose (CMC)
  survivor count: 10 of 10

## CC(C)OCCS(=O)(=O)Oc1ncc(Cl)cc1Cl
dose: 400.0 mg/kg/injection, schedule: Q04DX003 (ip), vehicle: saline with Tween-80
  survivor count: 10 of 10

## Cc1n(CC(C)C)c2c([n+]1CC(=O)c1ccc([N+](=O)[O-])cc1)C(=O)c1ccccc1C2=O
dose: 5.0 mg/kg/injection, schedule: Q01DX009 (ip), vehicle: saline with Tween-80
  survivor count: 1 of 6
dose: 10.0 mg/kg/injection, schedule: Q01DX009 (ip), vehicle: saline with Tween-80
  survivor count: 0 of 6

## O=C(NC(CSC(c1ccccc1)c1ccccc1)C(=O)O)OCc1ccccc1 (stereo unspecified)
dose: 100.0 mg/kg/injection, schedule: Q01DX009 (ip), vehicle: Klucel (hydroxypropylcellulose) (HPC)
  survivor count: 8 of 10

## COc1ccc([I+]c2cccc(Cl)c2)cc1Cl
[10]
  survivor count: 8 of 10
[7]
  survivor count: 9 of 10
[8]
  survivor count: 0 of 10

## COc1cccc(/C=N\N=C\c2cccc(OC)c2OC)c1OC
dose: 25.0 mg/kg/injection, schedule: Q01DX009 (ip), vehicle: saline
  survivor count: 10 of 10
[1]
  survivor count: 8 of 10
[2]
  survivor count: 10 of 10
[3]
  survivor count: 9 of 10

## N#CC(Nc1ccccc1)c1ccccc1 (stereo unspecified)
[11]
  survivor count: 4 of 10

## CC(=O)Nc1ccc(Cl)c(Cl)c1
[11]
  survivor count: 5 of 10

## CNC(=O)c1cccc2c(Nc3ccc(NS(C)(=O)=O)cc3OC)c3cccc(C)c3nc12
dose: 0.75 mg/kg/injection, schedule: Q01DX009 (ip), vehicle: water
  T/C: 136 % of control
dose: 6.0 mg/kg/injection, schedule: Q01DX009 (ip), vehicle: water
  survivor count: 10 of 10
dose: 12.0 mg/kg/injection, schedule: Q01DX009 (ip), vehicle: water
  survivor count: 10 of 10
dose: 12.5 mg/kg/injection, schedule: Q01DX009 (ip), vehicle: water
  survivor count: 9 of 10
dose: 25.0 mg/kg/injection, schedule: Q01DX009 (ip), vehicle: water
  survivor count: 7 of 10
dose: 50.0 mg/kg/injection, schedule: Q01DX009 (ip), vehicle: water
  survivor count: 5 of 10
dose: 100.0 mg/kg/injection, schedule: Q01DX009 (ip), vehicle: water
  survivor count: 4 of 10
dose: 200.0 mg/kg/injection, schedule: Q01DX009 (ip), vehicle: water
  survivor count: 1 of 10
